Experimental data as given in patent US20050049403A1.
Numbering of substitutions follows the chain as printed. Results are given in words; binding and its absence hold for the method and conditions named. For some of these results: Binding calls can cover weak binding; strength is not graded here.

By UniProt entry, the sequences of proteins in these tests, tags left out. Where a name states a change or a piece, a line headed by the entry shows the natural chain unless it says otherwise.
UniProt P61812: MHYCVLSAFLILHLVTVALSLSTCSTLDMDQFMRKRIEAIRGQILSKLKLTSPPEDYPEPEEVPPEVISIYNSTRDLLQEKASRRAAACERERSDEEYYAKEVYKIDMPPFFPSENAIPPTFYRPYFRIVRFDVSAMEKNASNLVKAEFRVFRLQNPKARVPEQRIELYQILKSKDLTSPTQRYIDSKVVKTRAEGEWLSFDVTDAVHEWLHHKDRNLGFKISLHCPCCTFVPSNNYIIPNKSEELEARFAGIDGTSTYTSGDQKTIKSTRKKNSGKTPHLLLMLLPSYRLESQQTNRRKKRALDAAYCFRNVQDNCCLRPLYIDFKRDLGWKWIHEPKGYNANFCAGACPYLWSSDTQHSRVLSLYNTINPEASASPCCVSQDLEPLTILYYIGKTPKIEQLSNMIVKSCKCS

How the values were obtained:
[1] = target: recombinant human TGFβ2 (human) (UniProt P61812); test: BIACore, antigen on the chip
[2] = target: recombinant human TGFβ2 (human) (UniProt P61812); test: ELISA, TGFβ coated at 0.2 µg/ml
[3] = target: cytochrome c; test: ELISA, antigen coated at 10 µg/ml
[4] = target: glyceraldehyde phosphate dehydrogenase; test: ELISA, antigen coated at 10 µg/ml
[5] = target: interleukin-1; test: ELISA, antigen coated at 10 µg/ml
[6] = target: keyhole limpet haemocyanin (keyhole limpet); test: ELISA, antigen coated at 10 µg/ml
[7] = target: tumour necrosis factor α (TNFα); test: ELISA, antigen coated at 10 µg/ml
[8] = target: recombinant human TGFβ2 (human) (UniProt P61812); test: competition ELISA on coated TGFβ2 after pre-incubation with acid activated PC-3 conditioned media
[9] = target: cytochrome c; test: ELISA, antigen coated at 10 µg/ml, anti-human Fc alkaline phosphatase conjugate, OD405 nm [a]
[10] = target: glyceraldehyde phosphate dehydrogenase; test: as above
[11] = target: interleukin-1; test: as above
[12] = target: keyhole limpet haemocyanin (keyhole limpet); test: as above
[13] = target: tumour necrosis factor α (TNFα); test: as above
[14] = target: recombinant human TGFβ2 (human) (UniProt P61812); test: ELISA, TGFβ2 coated at 0.2 µg/ml, bound IgG detected with mouse anti-human Fc alkaline phosphatase conjugate and PNPP, OD405 nm [a]
[15] = target: recombinant human TGFβ2 (human) (UniProt P61812); test: competition ELISA on plate-coated TGFβ2 (200 ng/ml), 4 µg 6B1 IgG4 in 400 µl, detection with anti-human IgG alkaline phosphatase conjugate, absorbance at 405 nm; competitor: active TGFβ2 in acid activated PC3 conditioned media
[16] = target: cytochrome c; test: ELISA, antigen coated at 10 µg/ml, anti-human Fc alkaline phosphatase conjugate, OD405 nm [b]
[17] = target: glyceraldehyde phosphate dehydrogenase; test: as above
[18] = target: interleukin-1; test: as above
[19] = target: keyhole limpet haemocyanin (keyhole limpet); test: as above
[20] = target: tumour necrosis factor α (TNFα); test: as above
[21] = target: recombinant human TGFβ2 (human) (UniProt P61812); test: ELISA, TGFβ2 coated at 0.2 µg/ml, bound IgG detected with mouse anti-human Fc alkaline phosphatase conjugate and PNPP, OD405 nm [b]
[22] = target: recombinant human TGFβ2 (human) (UniProt P61812); test: phage and soluble ELISA on coated TGFβ2
[23] = target: recombinant human TGFβ2 (human) (UniProt P61812); test: phage and soluble ELISA
[24] = target: recombinant human TGFβ2 (human) (UniProt P61812); test: BIACore, scFv injected over immobilised antigen

B1: 6B1 IgG4 (antibody, V domains shown)
VH: EVQLVESGGGVVQPGRSLRLSCAASGFTFSSYGMHWVRQAPGKGLEWVAVIWYDGSNKYYADSVKGRFTISRDNSKNTLYLQMDSLRAEDTAVYYCGRTLESSLWGQGTLVTVSS
VL: SSELTQDPAVSVALGQTVRITCQGDSLRSYYASWYQQKPGQAPVLVIYGKNNRPSGIPDRFSGSSSGNTASLTITGAQAEDEADYYCNSRDSSSTHRGVFGGGTKLTVLG
B1 was tested, and the binding [1] was “binds”, the binding [2] was “binds” and the binding [3] was “no binding”. For the same binder, the binding [4] was “no binding”, the binding [5] was “no binding” and the binding [6] was “no binding”. For the same binder, the binding [7] was “no binding”, the binding [8] was “binds” and the binding [9] was “no binding”. The binding [10] was “no binding”, the binding [11] was “no binding” and the binding [12] was “no binding”. For the same binder, the binding [13] was “no binding”, the binding [14] was “binds” and the binding [15] was “binds”.

B2: 6A5 IgG4 (antibody, V domains shown)
VH: B1 VH
VL: SSELTQDPAVSVALGQTVRITCQGDSLRSYYASWYQQKPGQAPVLVIYGKNNRPSGIPDRFAGSNSGNTASLTITGAQAEDEADYYCSSRDSSGNHVVFGGGTKLTVLG
For B2, the binding [1] was “binds”, the binding [2] was “binds” and the binding [3] was “no binding”. For the same binder, the binding [4] was “no binding”, the binding [5] was “no binding” and the binding [6] was “no binding”. For the same binder, the binding [7] was “no binding”, the binding [16] was “no binding” and the binding [17] was “no binding”. For the same binder, the binding [18] was “no binding”, the binding [19] was “no binding” and the binding [20] was “no binding”. The binding [21] was “binds”.

B3: Gold-11 scFv (scFv)
scFv: QVTLKESGGSVVQPGRSLRLSCAASGFTFSSYGMHWVRQAPGKGLEWVAVISYDGSNKYYADSVKGRFTISRDNSKNTQYLQMNSLRAEDTAEYYCARTGEYSGHASTGENVWGRGTLVTVSSGGGGSGGGGSGGGGSSYVLTHPPSVSGTPGQRVTISCSGGRSNIGSNTVKWYQQLPGTPPKLLIYGNDQRPSGIPDRFSGSKSGTSASLAITGVQAEDEADYYCQSYDSSLRGSRVFGTGTKVTVLG
For B3, the binding [22] was “binds”.

B4: 6H1 scFv (scFv)
scFv: EVQLVESGGGVVQPGRSLRLSCAASGFTFSSYGMHWVRQAPGKGLEWVAVIWYDGSNKYYADSVKGRFTISRDNSKNTLYLQMDSLRAEDTAVYYCGRTLESSLWGQGTLVTVSSGGGGSGGGGSGGGGSDVVMTQSPSSLSASVGDRVTITCRASQGISNYLAWYQQKPGKAPKLLIYKASTLESGVPSRFSGSGSGTEFTLTISSLQPEDFATYYCQQSYSTPRTFGQGTKVDIKR
With B4 the binding [23] was “binds”.

B5: 6A5 scFv (scFv)
scFv: EVQLVESGGGVVQPGRSLRLSCAASGFTFSSYGMHWVRQAPGKGLEWVAVIWYDGSNKYYADSVKGRFTISRDNSKNTLYLQMDSLRAEDTAVYYCGRTLESSLWGQGTLVTVSSGGGGSGGGGSGGGGSSSELTQDPAVSVALGQTVRITCQGDSLRSYYASWYQQKPGQAPVLVIYGKNNRPSGIPDRFAGSNSGNTASLTITGAQAEDEADYYCSSRDSSGNHVVFGGGTKLTVLG
In the case of B5, the binding [23] is reported as “binds”.

B6: 6B1 scFv (scFv)
scFv: EVQLVESGGGVVQPGRSLRLSCAASGFTFSSYGMHWVRQAPGKGLEWVAVIWYDGSNKYYADSVKGRFTISRDNSKNTLYLQMDSLRAEDTAVYYCGRTLESSLWGQGTLVTVSSGGGGSGGGGSGGGGSSSELTQDPAVSVALGQTVRITCQGDSLRSYYASWYQQKPGQAPVLVIYGKNNRPSGIPDRFSGSSSGNTASLTITGAQAEDEADYYCNSRDSSSTHRGVFGGGTKLTVLG
In the case of B6, the binding [23] is reported as “binds”.

B7: 11E6 scFv (scFv)
scFv: EIQLVESGGGVVQPGRSLRLSCAASGFTFSSYAMHWVRQAPAKGLEWVAVISYDGSNKYYADSVKGRFTISRDNSKNTLYLQMNSLRAEDTAVYYCARAGLETTWGQGTLVTVSSSGGGGGSGGGGSGGGGSEVVLTQSPSSLSASVGDRVTITCRASQGIGDDLGWYQQKPGKAPILLIYGTSTLQSGVPSRFSGSGSGTDFTLTINSLQPEDFATYYCLQDSNYPLTFGGGTRLEIKR
With B7 the binding [23] was “binds”.

B8: 14F12 scFv (scFv)
scFv: EIQLVESGGGVVQPGRSLRLSCAASGFTFSSYAMHWVRQAPAKGLEWVAVISYDGSNKYYADSVKGRFTISRDNSKNTLYLQMNSLRAEDTAVYYCARAGLETTWGQGTLVTVSSSGGGGGSGGGGSGGGGSSSELTQDPAVSVALGQTVRITCQGDSLRNYYANWYQQKPGQAPVLVIYGKNNRPSGIPDRFSGSSSGNTASLTITGARAEDEGVYYCNSRDSSGAVFGGGTKLTVLG
For B8, the binding [23] was “binds”.

B9: 6H1 IgG4 (antibody, V domains shown)
VH: B1 VH
VL: DVVMTQSPSSLSASVGDRVTITCRASQGISNYLAWYQQKPGKAPKLLIYKASTLESGVPSRFSGSGSGTEFTLTISSLQPEDFATYYCQQSYSTPRTFGQGTKVDIKR
In the case of B9, the binding [1] is reported as “binds”.

B10: 27C1/10A6 IgG4 (antibody, V domains shown)
VH: QVQLVESGGGVVQPGRSLRLSCAASGLTFSSYDMHWVRQPPAKGLEWVAVISYDGSSKYYADSVKGRFTISRDNSKNTLYLQMNSLRAEDTAVYYCARTGEYSGYDTSGVELWGQGTTVTVSS
VL: B1 VL with S1H, S2V, E3I, R28K, K50E, N52S, S94G, R97L, G98E
B10 was tested, and the binding [1] was “binds”.

B11: 31G9 scFv (scFv)
scFv: QVQLVQSGGGVVQPGRSLRLSCAASGFTFSSYGMHWVRQAPGKGLEWVAVISYDGSIKYYADSVKGRFTISRDNSKNTLYLQMNSLRAEDTAVYYCARTGEYSGYDTSGVELWGQGTTVTVSSGGGGSGGGGSGGGGSDIVMTQSPSTLSASVGDRVTITCRASQGISSWLAWYQQKPGRAPKVLIYKASTLESGVPSRFSGSGSGTDFTLTISSLQPEDFATYYCQQSYSTPWTFGQGTKLEIKR
With B11 the binding [24] was “binds”.
